{"source": "the supplement of paper PMC8728848", "binders": {"B1": {"name": "EfCBM33A (Enterococcus faecalis), Q838S1 (protein)", "chain": "MKKSLLTIVLAFSFVLGGAALAPTVSEAHGYVASPGSRAFFGSSAGGNLNTNVGRAQWEPQSIEAPKNTFITGKLASAGVSGFEPLDEQTATRWHKTNITTGPLDITWNLTAQHRTASWDYYITKNGWNPNQPLDIKNFDKIASIDGKQEVPNKVVKQTINIPTDRKGYHVIYAVWGIGDTVNAFYQAIDVNIQ"}}, "assay_in_all_cases": "glycan array binding signal (z-score within array); higher = stronger binding", "conditions_in_all_cases": "glycan notation: IUPAC condensed, linker removed", "key": {"[1]": {"target": "Man(a1-2)Man(a1-3)[Man(a1-2)Man(a1-6)]Man", "in_short": "(§1)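 The binding signal is a Z-score computed within each array and averaged over linkers. Arrays of the same protein sequence at different concentrations or buffers were also averaged together. Data originate from 3228 arrays in the Consortium for Functional Glycomics database, kept only where the protein sequence was available.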"}, "[2]": {"target": "Man(a1-2)Man(a1-3)[Man(a1-2)Man(a1-6)]Man(a1-6)[Man(a1-2)Man(a1-2)Man(a1-3)]Man", "in_short": "as §1"}, "[3]": {"target": "Man(a1-2)Man(a1-3)[Man(a1-2)Man(a1-6)]Man(a1-6)[Man(a1-2)Man(a1-2)Man(a1-3)]Man(b1-4)GlcNAc(b1-4)GlcNAc", "in_short": "as §1"}, "[4]": {"target": "Man(a1-2)Man(a1-3)[Man(a1-6)]Man(a1-6)[Man(a1-2)Man(a1-3)]Man(b1-4)GlcNAc(b1-4)GlcNAc", "in_short": "as §1"}, "[5]": {"target": "Man(a1-2)Man(a1-6)[Man(a1-3)]Man(a1-6)[Man(a1-2)Man(a1-2)Man(a1-3)]Man", "in_short": "as §1"}, "[6]": {"target": "Man(a1-2)Man(a1-6)[Man(a1-3)]Man(a1-6)[Man(a1-2)Man(a1-2)Man(a1-3)]Man(b1-4)GlcNAc(b1-4)GlcNAc", "in_short": "as §1"}, "[7]": {"target": "Man(a1-3)[Man(a1-6)]Man", "in_short": "as §1"}, "[8]": {"target": "Man(a1-3)[Man(a1-6)]Man(a1-6)[Man(a1-2)Man(a1-3)]Man(b1-4)GlcNAc(b1-4)GlcNAc", "in_short": "as §1"}, "[9]": {"target": "Man(a1-3)[Man(a1-6)]Man(a1-6)[Man(a1-3)]Man", "in_short": "as §1"}, "[10]": {"target": "Man(a1-3)[Man(a1-6)]Man(a1-6)[Man(a1-3)]Man(b1-4)GlcNAc(b1-4)GlcNAc", "in_short": "as §1"}, "[11]": {"target": "Man(a1-3)[Man(a1-6)]Man(b1-4)GlcNAc(b1-4)GlcNAc", "in_short": "as §1"}, "[12]": {"target": "Man(a1-3)[Man(a1-6)]Man(b1-4)GlcNAc(b1-4)[Fuc(a1-6)]GlcNAc", "in_short": "as §1"}, "[13]": {"target": "Man(a1-6)Man", "in_short": "as §1"}, "[14]": {"target": "Man(b1-4)GlcNAc", "in_short": "as §1"}, "[15]": {"target": "MurNAc(b1-4)GlcNAc", "in_short": "as §1"}, "[16]": {"target": "Neu5Ac(a2-3)Gal", "in_short": "as §1"}, "[17]": {"target": "Neu5Ac(a2-3)Gal(b1-3)GalNAc", "in_short": "as §1"}, "[18]": {"target": "Neu5Ac(a2-3)Gal(b1-3)GalNAc(b1-3)Gal(a1-4)Gal(b1-4)Glc", "in_short": "as §1"}, "[19]": {"target": "Neu5Ac(a2-3)Gal(b1-3)GalNAc(b1-4)Gal(b1-4)Glc", "in_short": "as §1"}, "[20]": {"target": "Neu5Ac(a2-3)Gal(b1-3)GalNAc(b1-4)[Neu5Ac(a2-3)]Gal(b1-4)Glc", "in_short": "as §1"}, "[21]": {"target": "Neu5Ac(a2-3)Gal(b1-3)GalNAc(b1-4)[Neu5Ac(a2-8)Neu5Ac(a2-3)]Gal(b1-4)Glc", "in_short": "as §1"}, "[22]": {"target": "Neu5Ac(a2-3)Gal(b1-3)GalNAc6S", "in_short": "as §1"}, "[23]": {"target": "Neu5Ac(a2-3)Gal(b1-3)GlcNAc", "in_short": "as §1"}, "[24]": {"target": "Neu5Ac(a2-3)Gal(b1-3)GlcNAc(b1-2)Man", "in_short": "as §1"}, "[25]": {"target": "Neu5Ac(a2-3)Gal(b1-3)GlcNAc(b1-2)Man(a1-3)[GlcNAc(b1-4)][Neu5Ac(a2-3)Gal(b1-3)GlcNAc(b1-2)Man(a1-6)]Man(b1-4)GlcNAc(b1-4)GlcNAc", "in_short": "as §1"}, "[26]": {"target": "Neu5Ac(a2-3)Gal(b1-3)GlcNAc(b1-2)Man(a1-3)[Neu5Ac(a2-3)Gal(b1-3)GlcNAc(b1-2)Man(a1-6)]Man(b1-4)GlcNAc(b1-4)GlcNAc", "in_short": "as §1"}, "[27]": {"target": "Neu5Ac(a2-3)Gal(b1-3)GlcNAc(b1-2)[Neu5Ac(a2-3)Gal(b1-3)GlcNAc(b1-4)]Man(a1-6)[Neu5Ac(a2-3)Gal(b1-3)GlcNAc(b1-2)Man(a1-3)]Man(b1-4)GlcNAc(b1-4)GlcNAc", "in_short": "as §1"}, "[28]": {"target": "Neu5Ac(a2-3)Gal(b1-3)GlcNAc(b1-3)Gal(b1-3)GlcNAc", "in_short": "as §1"}, "[29]": {"target": "Neu5Ac(a2-3)Gal(b1-3)GlcNAc(b1-3)Gal(b1-4)GlcNAc", "in_short": "as §1"}, "[30]": {"target": "Neu5Ac(a2-3)Gal(b1-3)GlcNAc(b1-3)GalNAc", "in_short": "as §1"}, "[31]": {"target": "Neu5Ac(a2-3)Gal(b1-3)GlcNAc(b1-6)GalNAc", "in_short": "as §1"}, "[32]": {"target": "Neu5Ac(a2-3)Gal(b1-3)GlcNAc6S", "in_short": "as §1"}, "[33]": {"target": "Neu5Ac(a2-3)Gal(b1-3)[Fuc(a1-4)]GlcNAc", "in_short": "as §1"}, "[34]": {"target": "Neu5Ac(a2-3)Gal(b1-3)[Fuc(a1-4)]GlcNAc(b1-3)Gal(b1-3)[Fuc(a1-4)]GlcNAc", "in_short": "as §1"}, "[35]": {"target": "Neu5Ac(a2-3)Gal(b1-3)[Fuc(a1-4)]GlcNAc(b1-3)Gal(b1-4)[Fuc(a1-3)]GlcNAc", "in_short": "as §1"}, "[36]": {"target": "Neu5Ac(a2-3)Gal(b1-3)[GlcNAc(b1-6)]GalNAc", "in_short": "as §1"}, "[37]": {"target": "Neu5Ac(a2-3)Gal(b1-3)[Neu5Ac(a2-6)]GalNAc", "in_short": "as §1"}, "[38]": {"target": "Neu5Ac(a2-3)Gal(b1-3)[Neu5Ac(a2-6)]GlcNAc(b1-3)[Fuc(a1-3)[Gal(b1-4)]GlcNAc(b1-6)]Gal(b1-4)Glc", "in_short": "as §1"}, "[39]": {"target": "Neu5Ac(a2-3)Gal(b1-3)]Neu5Ac(a2-3)Gal(b1-4)]GlcNAc", "in_short": "as §1"}, "[40]": {"target": "Neu5Ac(a2-3)Gal(b1-4)Glc", "in_short": "as §1"}, "[41]": {"target": "Neu5Ac(a2-3)Gal(b1-4)GlcNAc", "in_short": "as §1"}, "[42]": {"target": "Neu5Ac(a2-3)Gal(b1-4)GlcNAc(b1-2)Man", "in_short": "as §1"}, "[43]": {"target": "Neu5Ac(a2-3)Gal(b1-4)GlcNAc(b1-2)Man(a1-3)[GlcNAc(b1-4)][Neu5Ac(a2-3)Gal(b1-4)GlcNAc(b1-2)Man(a1-6)]Man(b1-4)GlcNAc(b1-4)GlcNAc", "in_short": "as §1"}, "[44]": {"target": "Neu5Ac(a2-3)Gal(b1-4)GlcNAc(b1-2)Man(a1-3)[Neu5Ac(a2-3)Gal(b1-4)GlcNAc(b1-2)Man(a1-6)]Man(b1-4)GlcNAc(b1-4)GlcNAc", "in_short": "as §1"}, "[45]": {"target": "Neu5Ac(a2-3)Gal(b1-4)GlcNAc(b1-2)Man(a1-3)[Neu5Ac(a2-3)Gal(b1-4)GlcNAc(b1-2)Man(a1-6)]Man(b1-4)GlcNAc(b1-4)[Fuc(a1-6)]GlcNAc", "in_short": "as §1"}}, "note": "Some of the results follow.", "data": [{"binder": "B1", "values": [{"measurement": "glycan array binding signal (z-score)", "setting": "[1]", "result": 0.783}, {"measurement": "glycan array binding signal (z-score)", "setting": "[2]", "result": -0.446}, {"measurement": "glycan array binding signal (z-score)", "setting": "[3]", "result": -0.525}, {"measurement": "glycan array binding signal (z-score)", "setting": "[4]", "result": -0.963}, {"measurement": "glycan array binding signal (z-score)", "setting": "[5]", "result": -0.949}, {"measurement": "glycan array binding signal (z-score)", "setting": "[6]", "result": -0.399}, {"measurement": "glycan array binding signal (z-score)", "setting": "[7]", "result": 0.092}, {"measurement": "glycan array binding signal (z-score)", "setting": "[8]", "result": 0.75}, {"measurement": "glycan array binding signal (z-score)", "setting": "[9]", "result": -2.09}, {"measurement": "glycan array binding signal (z-score)", "setting": "[10]", "result": 0.455}, {"measurement": "glycan array binding signal (z-score)", "setting": "[11]", "result": 0.206}, {"measurement": "glycan array binding signal (z-score)", "setting": "[12]", "result": -0.45}, {"measurement": "glycan array binding signal (z-score)", "setting": "[13]", "result": -0.011}, {"measurement": "glycan array binding signal (z-score)", "setting": "[14]", "result": -0.603}, {"measurement": "glycan array binding signal (z-score)", "setting": "[15]", "result": 0.631}, {"measurement": "glycan array binding signal (z-score)", "setting": "[16]", "result": -1.8}, {"measurement": "glycan array binding signal (z-score)", "setting": "[17]", "result": -0.07}, {"measurement": "glycan array binding signal (z-score)", "setting": "[18]", "result": -1.77}, {"measurement": "glycan array binding signal (z-score)", "setting": "[19]", "result": 2.04}, {"measurement": "glycan array binding signal (z-score)", "setting": "[20]", "result": -0.378}, {"measurement": "glycan array binding signal (z-score)", "setting": "[21]", "result": -0.329}, {"measurement": "glycan array binding signal (z-score)", "setting": "[22]", "result": -0.351}, {"measurement": "glycan array binding signal (z-score)", "setting": "[23]", "result": -0.334}, {"measurement": "glycan array binding signal (z-score)", "setting": "[24]", "result": -0.996}, {"measurement": "glycan array binding signal (z-score)", "setting": "[25]", "result": -0.728}, {"measurement": "glycan array binding signal (z-score)", "setting": "[26]", "result": -0.513}, {"measurement": "glycan array binding signal (z-score)", "setting": "[27]", "result": -0.066}, {"measurement": "glycan array binding signal (z-score)", "setting": "[28]", "result": -0.142}, {"measurement": "glycan array binding signal (z-score)", "setting": "[29]", "result": -0.199}, {"measurement": "glycan array binding signal (z-score)", "setting": "[30]", "result": -0.623}, {"measurement": "glycan array binding signal (z-score)", "setting": "[31]", "result": 0.16}, {"measurement": "glycan array binding signal (z-score)", "setting": "[32]", "result": 1.01}, {"measurement": "glycan array binding signal (z-score)", "setting": "[33]", "result": 0.625}, {"measurement": "glycan array binding signal (z-score)", "setting": "[34]", "result": -0.195}, {"measurement": "glycan array binding signal (z-score)", "setting": "[35]", "result": 1.65}, {"measurement": "glycan array binding signal (z-score)", "setting": "[36]", "result": -1.11}, {"measurement": "glycan array binding signal (z-score)", "setting": "[37]", "result": -0.995}, {"measurement": "glycan array binding signal (z-score)", "setting": "[38]", "result": -0.325}, {"measurement": "glycan array binding signal (z-score)", "setting": "[39]", "result": 1.87}, {"measurement": "glycan array binding signal (z-score)", "setting": "[40]", "result": 0.557}, {"measurement": "glycan array binding signal (z-score)", "setting": "[41]", "result": -0.303}, {"measurement": "glycan array binding signal (z-score)", "setting": "[42]", "result": 1.51}, {"measurement": "glycan array binding signal (z-score)", "setting": "[43]", "result": 0.122}, {"measurement": "glycan array binding signal (z-score)", "setting": "[44]", "result": -0.066}, {"measurement": "glycan array binding signal (z-score)", "setting": "[45]", "result": 0.062}]}]}
